The other results are listed elsewhere or left out. Many values rest on one well or one pass, so single values are uncertain.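 Test system: a mixed pool of 41 HAP1 clones in which 61 cancer-associated proteins carry fluorescent tags inserted into introns, and each clone is identified from its image pattern. Read-outs are compared with DMSO-treated control wells. The BRD4 degrader dBET6 served as the positive control.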
Biological target: XPO1 (intron 15 mScarlet tag, HAP1) (UniProt O14980)
Test: XPO1 fluorescence intensity change vs DMSO (log2 fold change); higher = more XPO1 protein
Settings: 6 h

Sequences of proteins named here, by UniProt entry; tags and fusion partners are left off.
UniProt O14980, whole entry: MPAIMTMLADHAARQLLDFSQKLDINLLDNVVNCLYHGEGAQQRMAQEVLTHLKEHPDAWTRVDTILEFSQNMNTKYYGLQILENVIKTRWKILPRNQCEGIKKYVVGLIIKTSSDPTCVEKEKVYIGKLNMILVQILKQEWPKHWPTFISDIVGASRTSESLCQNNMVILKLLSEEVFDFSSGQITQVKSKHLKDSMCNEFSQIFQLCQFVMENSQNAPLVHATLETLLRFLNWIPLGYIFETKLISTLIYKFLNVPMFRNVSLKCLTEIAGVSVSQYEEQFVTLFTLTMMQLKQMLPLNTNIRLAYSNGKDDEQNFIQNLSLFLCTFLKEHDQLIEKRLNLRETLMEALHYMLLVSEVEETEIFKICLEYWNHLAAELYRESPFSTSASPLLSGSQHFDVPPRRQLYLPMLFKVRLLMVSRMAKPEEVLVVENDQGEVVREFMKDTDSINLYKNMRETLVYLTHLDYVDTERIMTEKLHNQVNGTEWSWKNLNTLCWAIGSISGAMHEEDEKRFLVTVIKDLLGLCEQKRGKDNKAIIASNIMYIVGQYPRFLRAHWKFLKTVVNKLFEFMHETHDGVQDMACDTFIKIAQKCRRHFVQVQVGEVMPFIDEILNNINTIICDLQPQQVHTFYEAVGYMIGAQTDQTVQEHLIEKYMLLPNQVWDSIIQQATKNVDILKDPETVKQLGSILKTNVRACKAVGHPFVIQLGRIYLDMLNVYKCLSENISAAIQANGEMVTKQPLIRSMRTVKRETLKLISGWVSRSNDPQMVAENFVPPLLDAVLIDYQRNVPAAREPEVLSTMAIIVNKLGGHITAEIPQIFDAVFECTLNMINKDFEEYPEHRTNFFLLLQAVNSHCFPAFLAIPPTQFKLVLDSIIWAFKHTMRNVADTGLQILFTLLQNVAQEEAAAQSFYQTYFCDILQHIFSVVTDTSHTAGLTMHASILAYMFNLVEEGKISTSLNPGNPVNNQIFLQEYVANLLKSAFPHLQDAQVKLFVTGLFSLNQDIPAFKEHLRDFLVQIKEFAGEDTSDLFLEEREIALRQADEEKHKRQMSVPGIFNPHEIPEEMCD

**Q.** Which “XPO1 fluorescence intensity change (log2)” value does the source give for CCOC(=O)C1=C(CCl)NC(=O)NC1c1ccccc1Cl (centres undefined) (10 µM) here?
**A.** Its value is -0.3.

**Q.** With CCn1c(=O)c2ccccc2n2c(CCl)nnc12 (10 µM) as the compound, how does the “XPO1 fluorescence intensity change (log2)” value read?
**A.** The value was 0.119.

**Q.** Which “XPO1 fluorescence intensity change (log2)” value does the source give for CCOC(=O)c1c(NC(=O)COc2ccccc2OCC)sc2c1CC(C)(C)NC2(C)C (10 µM) here?
**A.** Its value is -0.118.

**Q.** For Cn1c(=O)c2c(ncn2Cc2ccc(-c3ccccc3C#N)cc2)n(C)c1=O (10 µM), which “XPO1 fluorescence intensity change (log2)” value is on record?
**A.** The value was 0.034.

**Q.** Which “XPO1 fluorescence intensity change (log2)” value does the source give for Cc1cc(C)cc(Nc2nc(-c3ccc(Br)cc3)cs2)c1 (10 µM) here?
**A.** Its value is -0.0286.

**Q.** Which “XPO1 fluorescence intensity change (log2)” value does the source give for COC(=O)c1ccc(CSc2ncnc3[nH]ncc23)cc1 (10 µM) here?
**A.** The value was -0.0962.

**Q.** With CC(C)c1ccc(C(=O)N=C(N)N)cc1S(C)(=O)=O [cariporide] (10 µM) as the compound, how does the “XPO1 fluorescence intensity change (log2)” value read?
**A.** The value was 0.0169.

**Q.** For Cc1nn(Cc2ccccc2)c(C)c1CNC(=O)CN(C)c1c(C)noc1C (10 µM), which “XPO1 fluorescence intensity change (log2)” value is on record?
**A.** The value was 0.265.

**Q.** How did the “XPO1 fluorescence intensity change (log2)” value turn out when Cc1ccc(-c2ccc(C(=O)NCc3nnc4ccccn34)s2)o1 (1 µM) was run?
**A.** The value was -0.148.

**Q.** For Cc1sc(-c2ccco2)nc1C(=O)N1CCCSc2ccccc21 (0.1 µM), which “XPO1 fluorescence intensity change (log2)” value is on record?
**A.** The value was 0.0482.

**Q.** With CCOC(=O)c1sc2nc(CCl)nc(N)c2c1C (10 µM) as the compound, how does the “XPO1 fluorescence intensity change (log2)” value read?
**A.** The value was -0.178.

**Q.** How did the “XPO1 fluorescence intensity change (log2)” value turn out when CC(C)(C)c1csc(NC(=O)c2ccc(S(=O)(=O)C(F)F)cc2)n1 (10 µM) was run?
**A.** The value was -0.17.

**Q.** O=C(Nc1cc(C(F)F)ns1)Nc1cc(F)ncc1CO (10 µM) was tested. Which “XPO1 fluorescence intensity change (log2)” value did it give?
**A.** The value was 0.0754.

**Q.** How did the “XPO1 fluorescence intensity change (log2)” value turn out when CC(=O)Nc1nc2ccc(NC(=O)c3c(C)nn(C)c3C)cc2s1 (10 µM) was run?
**A.** Its value is -0.124.

**Q.** Which “XPO1 fluorescence intensity change (log2)” value does the source give for COc1ccc(CC(=O)NCc2ccc(C(=O)N3CCCCC3)cc2)cc1 (10 µM) here?
**A.** Its value is 0.152.

**Q.** For O=S(=O)(Cc1ccccc1)NCCCNc1ccc(C(F)(F)F)cn1 (1 µM), which “XPO1 fluorescence intensity change (log2)” value is on record?
**A.** Its value is 0.0186.

**Q.** With Cc1nc(-c2ccc(NC(=O)c3ccco3)cc2)cs1 (1 µM) as the compound, how does the “XPO1 fluorescence intensity change (log2)” value read?
**A.** Its value is -0.00433.

**Q.** For Cn1c(=O)c2c(nc(N3CCNCC3)n2Cc2nnc(-c3ccc(Cl)c(Cl)c3)o2)n(C)c1=O (10 µM), which “XPO1 fluorescence intensity change (log2)” value is on record?
**A.** The value was -0.0496.

**Q.** Which “XPO1 fluorescence intensity change (log2)” value does the source give for Cc1cc(NCCCn2ccc3ccccc32)c2ccccc2n1 (10 µM) here?
**A.** Its value is 0.0948.

**Q.** How did the “XPO1 fluorescence intensity change (log2)” value turn out when CCOC(=O)c1oc2ccccc2c1CSc1nncc2ccccc12 (10 µM) was run?
**A.** The value was -0.125.

**Q.** Cc1ccoc1C(=O)Nc1ccc2c(c1)CCN2C(=O)c1ccoc1 (10 µM) was tested. Which “XPO1 fluorescence intensity change (log2)” value did it give?
**A.** The value was 0.0426.

**Q.** Cn1c(=O)c2sccc2n2c(CCl)nnc12 (10 µM) was tested. Which “XPO1 fluorescence intensity change (log2)” value did it give?
**A.** Its value is 0.0865.

**Q.** For Cc1ccc(-c2nnc(Sc3ncnc4sccc34)o2)cc1 (10 µM), which “XPO1 fluorescence intensity change (log2)” value is on record?
**A.** The value was 0.0181.

**Q.** O=C(Nc1cc2c(cc1Cl)OCCCO2)c1cccnc1N1CCCCC1 (10 µM) was tested. Which “XPO1 fluorescence intensity change (log2)” value did it give?
**A.** The value was 0.115.

**Q.** CCCc1cc(=O)n2nc(Br)sc2n1 (10 µM) was tested. Which “XPO1 fluorescence intensity change (log2)” value did it give?
**A.** Its value is -0.239.

**Q.** For CN(C)CCCNCCCc1ccc(C(C)(C)C)cc1 (10 µM), which “XPO1 fluorescence intensity change (log2)” value is on record?
**A.** Its value is 0.091.

**Q.** Which “XPO1 fluorescence intensity change (log2)” value does the source give for CCOC(=O)c1ccnc(CNCC(=O)N(CC)CCN(C)C)c1 (20 µM) here?
**A.** Its value is -0.133.

**Q.** Cn1nc(CC(=O)Nc2cc(C(C)(C)C)ccc2O)c2ccccc2c1=O (10 µM) was tested. Which “XPO1 fluorescence intensity change (log2)” value did it give?
**A.** Its value is -0.13.

**Q.** Which “XPO1 fluorescence intensity change (log2)” value does the source give for COc1cccc(-n2cnnc2SCC(=O)NCc2ccc(Cl)cc2)c1 (10 µM) here?
**A.** The value was 0.0652.

**Q.** For COc1ccc(S(=O)(=O)Nc2cccc(-n3cccn3)c2)cc1 (10 µM), which “XPO1 fluorescence intensity change (log2)” value is on record?
**A.** The value was 0.00727.

**Q.** CC(C)(C)c1cc(Nc2ccncc2)n2ncc(-c3ccccc3)c2n1 (10 µM) was tested. Which “XPO1 fluorescence intensity change (log2)” value did it give?
**A.** Its value is -0.152.

**Q.** Which “XPO1 fluorescence intensity change (log2)” value does the source give for COc1ccc(-c2cc(-c3c(O)ccc4ccccc34)[nH]n2)cc1 (10 µM) here?
**A.** The value was 0.104.

**Q.** With CNC(=O)C1CCN(Cc2cc(Cl)c3ccccc3c2O)CC1 (0.1 µM) as the compound, how does the “XPO1 fluorescence intensity change (log2)” value read?
**A.** The value was -0.00387.

**Q.** For CC(=O)c1c(C)cc(C)c(CN2CCN(c3cnccn3)CC2)c1C (0.1 µM), which “XPO1 fluorescence intensity change (log2)” value is on record?
**A.** The value was -0.0515.

**Q.** For N#CC(C#N)=C1C=CC=CN1/C(=C/c1cccc(F)c1)C(=O)c1cccs1 (10 µM), which “XPO1 fluorescence intensity change (log2)” value is on record?
**A.** The value was 0.105.

**Q.** With Cc1ccc(C)c(Nc2cc(C)nc(-c3ccccc3O)n2)c1 (10 µM) as the compound, how does the “XPO1 fluorescence intensity change (log2)” value read?
**A.** Its value is -0.0601.

**Q.** With O=C(CSc1nc2ccccc2[nH]1)Nc1ccc(Cl)cn1 (10 µM) as the compound, how does the “XPO1 fluorescence intensity change (log2)” value read?
**A.** The value was -0.0584.

**Q.** How did the “XPO1 fluorescence intensity change (log2)” value turn out when COC(=O)c1cc(NC(=O)c2cnc3onc(C)c3c2)cc(C)c1C (10 µM) was run?
**A.** The value was -0.0233.

**Q.** How did the “XPO1 fluorescence intensity change (log2)” value turn out when c1ccc2c(NC3CCCCCC3)nsc2c1 (10 µM) was run?
**A.** The value was 0.0714.

From the supplement of paper PMC11098740
